# Reference: PubChem BioAssay AID493014 (National Center for Advancing Translational Sciences (NCATS), 2011)
# The whole screen tested about 340,000 compounds, of which about 170 (0.05%) were called active. Inconclusive results, whose numbers are uncertain, are shown with a selection of clear calls. Calls come from the whole dose curve; as a rule, active = well fitted inhibition curve with a large enough effect in the signal ratio, with a control signal flat (not every such curve was filed as active); inconclusive = small, poorly fitted or top-dose-only effect, or effect the other way, or a change in a side signal; inactive = flat fitted curve, though single readings scatter; the % refers to the signal ratio. Where the call is inconclusive, the potency comes from a doubtful curve fit.
# Assay: qHTS Assay to Find Inhibitors of Chronic Active B-Cell Receptor Signaling;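 for activity change, negative = inhibition: plate controls were basal doxycycline-induced cells for no effect and cells given 10 µM MG132 for full effect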
# Conditions: ABC-DLBCL IkBa-CBG/CBR reporter, luminescence ratio (green luciferase fused to IkBa over red control in TMD8 lymphoma cells), 4 h; activity change, negative = inhibition: at 46.1 µM (top of the series)
# Method in brief: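 Cell line TMD8 (human ABC DLBCL), stably expressing tet-inducible CBG68-IkBa fusion and CBR; IMDM/0.5% FBS; cpd up to 46 uM; dox induction, 4 h, 37C/5% CO2; dual luminescence; green/red ratio; MG132 control.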
# Potency is the fitted concentration of half-maximal effect.
Structure (SMILES),"activity change, negative = inhibition",Potency
Cc1n[nH]c(C)c1Sc1ccccc1[N+](=O)[O-],inactive: 5.37%,–
CC(C)CCSc1nc2c(c(=O)[nH]c(=O)n2C)n1CCCc1ccccc1,inconclusive: 0.814%,–
CC(C)(C)Nc1nc(NCc2cccnc2)nc(N2CCOCC2)n1,inconclusive: -1.11%,–
COc1ccc(CNC(=O)c2cc(-c3ccco3)on2)cc1,inconclusive: -14.7%,–
Cc1nc(Nc2ccc3c(c2)OCO3)c2oc3ccccc3c2n1,inconclusive: 3.57%,–
O=C(NCc1ccco1)/C(=C\c1ccco1)NC(=O)c1ccccc1Cl,inconclusive: 0.723%,–
CC1=Cc2ccccc2C(C#N)N1C(=O)c1ccccc1 (centres undefined),–,"inconclusive: 25.9 µM [falling, single point]"
Cc1cccc(C)c1NC(=O)CS(=O)CC(=O)NC1CCCc2ccccc21 (centres undefined),inconclusive: 3.09%,–
COc1ccc([N+](=O)[O-])cc1N(CC(O)CN1CCCCC1)S(=O)(=O)c1ccc(C)cc1 (centres undefined),inconclusive: 19.1%,–
COC(=O)c1c(-c2cc(OC)cc(OC)c2)sc2ccc(OC)cc12,inconclusive: -11.3%,–
COc1cnc(-c2ccccc2)nc1Oc1ccc(C(C)(C)C)cc1,inconclusive: -7.99%,–
CCOc1ccc(-c2noc(CCCC(=O)NCC3CCCO3)n2)cc1OC (centres undefined),–,"inconclusive: 11.2 µM [falling, partial curve]"
Cc1cc(NC(=O)C2CCCC2)n(-c2nc3ccccc3[nH]2)n1,inconclusive: -2.79%,–
CN1/C(=C\C(=O)COC(=O)c2ccc(O)c(O)c2)C(C)(C)c2ccccc21,–,"inconclusive: 17.8 µM [falling, partial curve]"
CCOc1cc(/C=N/NS(=O)(=O)c2ccccc2)ccc1OS(=O)(=O)c1ccc(C)cc1,inconclusive: 5.61%,–
COc1ccc(CCC(=O)Nc2cc(S(=O)(=O)N3CCOCC3)ccc2OC(C)C)cc1,inconclusive: -1.45%,–
O=C(/C=C(\O)c1ccccc1)C(=O)NNC(=O)c1ccccc1,–,"inconclusive: 11.2 µM [falling, partial curve]"
COc1ccc2cc3cc(C(=O)NCCc4ccc(OC)c(OC)c4)oc3nc2c1,–,"inconclusive: 17.8 µM [falling, single point]"
COc1cc(C2Nc3cccc4cccc(c34)N2)cc(OC)c1OC(C)=O,inactive: 0.449%,–
Cc1cccc(NC(=O)CCn2nc(-c3ccccc3)c3ccccc3c2=O)c1,inconclusive: -0.642%,–
CCC(=O)Nc1cccc(NC(=O)c2ccc3c(c2)OCO3)c1,–,"inconclusive: 11.6 µM [falling, partial curve]"

Structure (SMILES),"activity change, negative = inhibition",Potency
NS(=O)(=O)c1ccc(CCNCc2ccccc2OCc2ccc(Cl)cc2)cc1,inconclusive: -16.8%,–
O=C(O)CCC(=O)N1N=C(c2cccs2)CC1c1ccc(Br)cc1 (centres undefined),inactive: 7.3%,–
O=C(O)CSCc1nc2ccccc2s1,–,"inconclusive: 4.47 µM [rising, full curve, poor fit]"
CCN(CC)C(=O)Oc1ccc(Cl)c2cccnc12,inactive: -0.938%,–
O=C(Nc1ccccn1)c1cccc(S(=O)(=O)N2CCCCC2)c1,inconclusive: 19.9%,–
COCCn1c(Cc2ccccc2)nnc1SCC(=O)N1CCCCC1C (centres undefined),–,"inconclusive: 16.4 µM [rising, partial curve, poor fit]"
CC1(c2ccccc2)NC(=O)N(CC(=O)Nc2ccc(Cl)c(S(=O)(=O)N3CCCCC3)c2)C1=O (centres undefined),inconclusive: 4.2%,–
N#CC1=C(N)N(c2ccc(F)cc2)C2=C(C1c1ccc(O)cc1)S(=O)(=O)CC2 (centres undefined),–,"inconclusive: 3.55 µM [falling, full curve]"
O=C(Nc1nccs1)C1CCN(S(=O)(=O)c2ccc(Cl)c(C(F)(F)F)c2)CC1,inconclusive: -8.58%,–
CC(C)N1CCc2c(sc(NC(=O)c3nc4ccccc4s3)c2C(N)=O)C1,inconclusive: 2.93%,–
O=C(Cc1ccsc1)NNC(=O)c1ccc(F)cc1,inconclusive: -20.4%,–
CC(C)c1ccc(NC2CCCN(C(=O)CCn3cnnn3)C2)cc1 (centres undefined),inactive: -0.58%,–
COc1ccc(/C=C2\SC(=S)N(CCC(=O)N(CCO)c3ccccc3)C2=O)cc1OC,–,"inconclusive: 15.8 µM [falling, partial curve]"
CC(=O)c1cnn(-c2c(Cl)cc(Cl)cc2Cl)c1C,inactive: -0.38%,–
O=C1CCCCCN1Cc1nnc(SCc2nc3ccccc3s2)n1-c1ccccn1,inconclusive: 6.47%,–
N#CCCN(Cc1cccnc1)C(=S)NC(=O)C1CC1,inactive: 6.41%,–
CC(C)[C@H](NS(=O)(=O)c1ccccc1)C(=O)OCn1nnc2ccccc2c1=O,–,"inconclusive: 6.51 µM [falling, partial curve, poor fit]"
O=C(Nc1cccc(S(=O)(=O)N2CCCCC2)c1)c1ccc(Cl)nc1,inconclusive: -0.086%,–
C=CCc1c(C)nc(SC)nc1Nc1ccc(C)cc1,inactive: 11.3%,–
O=C(c1ccc(Cl)c(Cl)c1)c1cnc(Nc2ccccc2)s1,–,"inconclusive: 2.24 µM [falling, full curve, poor fit]"
Cc1cc(C(=O)COC(=O)COc2ccccc2C#N)c(C)n1CC1CCCO1 (centres undefined),inactive: 1.83%,–

# 3 entries from above, tab-delimited.
Structure (SMILES)	activity change, negative = inhibition	Potency
O=C(Cc1ccsc1)NNC(=O)c1ccc(F)cc1	inconclusive: -20.4%	–
CC(C)c1ccc(NC2CCCN(C(=O)CCn3cnnn3)C2)cc1 (centres undefined)	inactive: -0.58%	–
COc1ccc(/C=C2\SC(=S)N(CCC(=O)N(CCO)c3ccccc3)C2=O)cc1OC	–	inconclusive: 15.8 µM [falling, partial curve]

# Next entries:

Structure (SMILES),"activity change, negative = inhibition",Potency
NC(=S)N/N=C/c1ccc(C(F)(F)F)cc1,inconclusive: -10.7%,–
CC1CC(C)CN(S(=O)(=O)c2ccc(C(=O)NCCCn3ccnc3)cc2)C1 (centres undefined),inactive: -4.28%,–
COc1ccc(N(Cc2cc3ccccc3[nH]c2=O)S(C)(=O)=O)cc1,inconclusive: -19.4%,–
CCCCn1c(N)c(N(CCC(C)C)C(=O)CSc2nnc3ccccn23)c(=O)[nH]c1=O,inconclusive: 0.718%,–
O=S(=O)(NCc1ccc(Cl)cc1)c1cccc2cccnc12,inconclusive: -17.6%,–
Cc1ccc(-c2noc(CCC(=O)N3CCCC3)n2)cc1,inconclusive: 0.254%,–
CCOc1ccc(S(=O)(=O)N2CCN(CC)CC2)cc1NC(=O)c1ccccc1F,inactive: 2.62%,–
O=C(CCN1C(=O)/C(=C/C=C/c2ccccc2)SC1=S)Nc1nc2ccccc2s1,–,"inconclusive: 18.4 µM [falling, partial curve]"
C/C(=N\NC(=O)CC(C)C)c1c(C(F)(F)F)[nH]n(-c2nc3ccccc3s2)c1=O,–,"inconclusive: 25.1 µM [falling, partial curve]"
O=C1C=C(/C=C/c2ccccc2)C[C@@H](c2ccc3c(c2)OCO3)C1,inconclusive: 6.14%,–
COC(=O)c1cccc(NC(=S)Nc2ccccc2Cl)c1,inactive: -13.9%,–
COc1cccc(C2CC(=O)Nc3c2c(=O)nc2c(C)cccn32)c1OC (centres undefined),inconclusive: 14.6%,–
CC(=O)c1cccc(OCC(=O)NC2CCCCCC2)c1,inconclusive: -28.9%,–
COc1cccc(C(c2sc3nc(C)nn3c2O)N2CCc3ccccc3C2)c1 (centres undefined),inactive: 0.535%,–
COC(=O)c1cc(OC)c(OC)cc1NC(=O)c1cc(OC)cc(OC)c1,inconclusive: 0.352%,–
CCc1cccc2c(C(=O)C(NCCCOC)c3ccccc3)c[nH]c12 (centres undefined),inconclusive: 2.15%,–
COc1cccc(NC(=O)c2ccc(NC(=O)C(C)C)cc2)c1,inconclusive: 11.8%,–
COc1ccc(C2(CNC(=O)c3ccccc3[N+](=O)[O-])CCOCC2)cc1,inconclusive: 0.576%,–
Cn1c(=O)c2c(nc3n2CCCN3CCc2ccccc2)n(C)c1=O,inconclusive: 1.57%,–
CC(=O)N1CC(C)Sc2ccc(S(=O)(=O)NC3CCCCC3C)cc21 (centres undefined),inactive: -1.24%,–
CSc1cccc(N/C(=N/S(=O)(=O)c2ccccc2)NN)c1,inconclusive: -2.95%,–

Structure (SMILES),"activity change, negative = inhibition",Potency
Cc1ccc(NC(=O)Nc2ccc(F)c(Cl)c2)cc1,inconclusive: -8.7%,–
Cc1[nH]c2ccccc2c1C(c1ccncc1)N1CCN(c2ccc(F)cc2)CC1 (centres undefined),inconclusive: -1.77%,–
Cc1ccc(C)c(NC(=S)N/N=C2/CCCCc3ccccc32)c1,inconclusive: 13.2%,–
Cc1ccc(S(=O)(=O)N2CCCC(C(=O)O)C2)s1 (centres undefined),inactive: 0.567%,–
N#Cc1ccccc1OCC(=O)Nc1ccc2c(c1)OCCO2,inactive: -0.389%,–
Cc1ccc(C(=O)NC(Cc2c[nH]c3ccccc23)C(=O)O)o1 (centres undefined),inconclusive: 0.631%,–
Cc1occc1C(=O)N/N=C/C=C/c1ccccc1,–,"inconclusive: 0.708 µM [rising, partial curve, poor fit]"
COC(=O)N1C(=O)[C@@](c2ccccc2)(C2CCCC2)N1C(=O)OC,–,"inconclusive: 11.2 µM [falling, partial curve]"
Cc1ccc(NC(=O)CCCc2ccccc2)c([N+](=O)[O-])c1,inconclusive: 4.9%,–
O=C(Cn1ncc2c3ccccc3n(Cc3ccccc3F)c2c1=O)NCCCN1CCCC1=O,inconclusive: 2.1%,–
C/C(=N\OC(=O)c1ccc(F)cc1)c1ccc(F)c(F)c1,inconclusive: -0.68%,–
Cc1cccc2cc3c(NC(=O)CC(C)C)nn(C)c3nc12,inactive: 11.3%,–
Cn1cnnc1SCc1ccccc1Br,inconclusive: 20.3%,–
CC1(C)Cc2c(c(N3CCCCC3)[nH]c(=S)c2C#N)CS1,inactive: 2.68%,–
CC(C)CN(C(=O)C1CC1)C1CCS(=O)(=O)C1 (centres undefined),inconclusive: 4.15%,–
COCCCNC(NC(=O)c1ccc(Cl)cc1)C(Cl)(Cl)Cl (centres undefined),inactive: -7.31%,–
O=c1cnnc(SCCc2ccccc2)[nH]1,–,"inconclusive: 29.1 µM [rising, single point]"
Cc1nn(-c2cccc([N+](=O)[O-])c2)c(N)c1-c1ccccc1,–,"inconclusive: 7.94 µM [falling, partial curve]"
CC1(C(=O)Nc2nc3ccccc3s2)CC1(Br)Br (centres undefined),inconclusive: 15.4%,–
CCOC(=O)c1[nH]c(C)c(C(=O)OCC(=O)NC(C)c2ccc(F)cc2)c1C (centres undefined),inactive: 0.357%,–
CC1C(=O)N2CCCc3cc(NS(=O)(=O)c4ccc(F)cc4)cc1c32 (centres undefined),inconclusive: 20.3%,–

# Laid out differently: results already given
Structure (SMILES) | activity change, negative = inhibition | Potency
CCOc1ccc(-c2noc(CCCC(=O)NCC3CCCO3)n2)cc1OC (centres undefined) | – | inconclusive: 11.2 µM [falling, partial curve]
Cc1cc(NC(=O)C2CCCC2)n(-c2nc3ccccc3[nH]2)n1 | inconclusive: -2.79% | –
